Assay results as given in patent US20120207721A1.
No constants are given. Whether binding was seen depends on the method and setting. Some entries that bind do so weakly or less than the wild type. Tags and fused reporters may be left off the sequences shown.

Amino acid sequences for entries named in this document (tags omitted). A change or cut given only in a name is not applied to a line headed by its entry.
UniProt P06213: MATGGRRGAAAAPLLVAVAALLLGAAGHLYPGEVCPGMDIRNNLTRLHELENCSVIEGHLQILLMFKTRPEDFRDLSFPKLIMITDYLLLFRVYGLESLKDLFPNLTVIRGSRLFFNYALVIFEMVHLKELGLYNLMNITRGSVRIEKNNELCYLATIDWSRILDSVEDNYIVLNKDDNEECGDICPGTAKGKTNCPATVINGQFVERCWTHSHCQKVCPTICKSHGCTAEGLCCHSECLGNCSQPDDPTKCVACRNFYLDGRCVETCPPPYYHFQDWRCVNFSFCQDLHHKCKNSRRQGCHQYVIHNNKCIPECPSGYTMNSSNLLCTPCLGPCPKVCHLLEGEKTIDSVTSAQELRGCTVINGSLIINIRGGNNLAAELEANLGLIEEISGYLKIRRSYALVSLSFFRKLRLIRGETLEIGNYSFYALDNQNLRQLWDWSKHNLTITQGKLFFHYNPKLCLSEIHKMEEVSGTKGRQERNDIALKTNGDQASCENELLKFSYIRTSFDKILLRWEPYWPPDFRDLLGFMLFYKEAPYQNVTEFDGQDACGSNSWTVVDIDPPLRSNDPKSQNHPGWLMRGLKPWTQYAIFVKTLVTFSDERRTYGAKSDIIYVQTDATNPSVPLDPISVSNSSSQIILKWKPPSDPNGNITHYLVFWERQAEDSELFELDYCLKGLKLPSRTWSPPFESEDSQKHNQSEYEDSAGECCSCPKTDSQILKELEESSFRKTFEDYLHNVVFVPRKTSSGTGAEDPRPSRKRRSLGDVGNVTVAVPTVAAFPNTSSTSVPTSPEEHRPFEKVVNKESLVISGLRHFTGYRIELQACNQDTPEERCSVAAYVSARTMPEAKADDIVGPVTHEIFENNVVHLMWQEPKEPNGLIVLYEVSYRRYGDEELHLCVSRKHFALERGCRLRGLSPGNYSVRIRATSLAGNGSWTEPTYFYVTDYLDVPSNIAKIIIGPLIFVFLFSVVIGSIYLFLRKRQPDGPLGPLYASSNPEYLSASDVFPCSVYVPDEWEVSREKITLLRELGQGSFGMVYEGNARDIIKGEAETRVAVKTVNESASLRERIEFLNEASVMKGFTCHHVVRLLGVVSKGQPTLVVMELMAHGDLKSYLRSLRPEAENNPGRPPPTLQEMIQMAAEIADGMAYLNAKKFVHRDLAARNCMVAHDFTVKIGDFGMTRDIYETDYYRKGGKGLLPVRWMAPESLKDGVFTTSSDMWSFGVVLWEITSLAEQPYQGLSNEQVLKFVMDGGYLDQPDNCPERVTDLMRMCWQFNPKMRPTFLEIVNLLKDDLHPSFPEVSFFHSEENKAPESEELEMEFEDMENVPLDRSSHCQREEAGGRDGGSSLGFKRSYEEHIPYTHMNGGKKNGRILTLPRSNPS

Target: human insulin receptor IR-B (overlapping peptides of the entire primary sequence on a SPOT membrane) (human) (UniProt P06213)
Test: SPOT peptide array of the insulin receptor probed with 125I-labelled soluble SorCS1

B1: soluble mouse SorCS1 protein (125I-tagged) (receptor)
chain: SGTEPEKIEPGEGASRSRRDMLKDGGQQGLGTGARDPGKATRFRMEELRLTSTTFALTGDSAHNQAMVHWSGHNSSVILILTKLYDYNLGSITESSLWRSTDYGTTYEKLNDKVGLKTILSYLYVCPTNKCKIMLLTDPEIESSLLISSDEGATYQKYRLNFYLQSLLFHPKQEDWILAYSQDQKLYSSAEFGRRWQLIQESVVPNRFYWSVMGSSKEPDLVHLEARTVDGHSIYLTCRMQNCTEANRNKPFPGYIDPDSLIVQDDYVFVQLTSGGRPHYYVSYRRSPFAQMKLPKYALPKDMHVISTDENQVFAAVQEWNQNDTYNLYISDTRGVYFTLALENVRSSRGPEGNVMIDLYEVAGIKGMFLANKKIDNQVKTFITYNKGRDWRLLQAPDADLRGDPVHCLLPYCSLHLHLKVSENPYTSGIIASRDTAPSIIVASGNIGSELSDSDISMFVSSDAGNTWRQIFEEEHSILYLDQGGVLVAMKHTSLPIRHLWLSFDEGRSWSKYSFTSIPLFVDGVLGEPGEETLIMTVFGHFSHRSEWQLVKVDYKSIFDRRCAEEDYRPWQLHSQGEACIMGAKRIYKKRKSERKCMQKYAGAMESEPCVCTEADFDCDYGYERHSNGQCLPAFWFNPSSLSKDCSLGQSYLNSAGYRKVVSNNCTDGVREQYTAKPQKCPGKAPRGLRIVTADGKLTAEQGHNVTLMVQLEEGDVQRTLIQVDFGDGIAVSYVNLSSMEDGIKHVYQNVGIFRVTVQVDNSLGSDSAVLYLHVTCPLEHVHLSLPFVTTKNKEVNATAVLWPSQVGTLTYVWWYGNNTEPLITLEGSISFKFTSEGMNTITVQVSAGNAILQDTKTIAVYEEFRSLRLAFSPNLDDYNPDIPEWRRDISRVIKKSLVEATGIPSQHILVAVLPGLPTAAELFVLPYQDGTRENKRSPEDLEQISEVLIHKLNQNLVHFELKPGVQVLVHAAHLTAAPLVDLTPTHS
modifications: 125I-labelled (radioiodinated; residues not stated)
In the case of B1, the binding is reported as “binds”.
